Measured values reported in publication doi:10.1101/2022.06.20.496848.
Results are given in words; binding and its absence hold for the method and conditions named. In cells and extracts the contact can be indirect. Some results given as binding are weak or reduced against the parent protein; the word gives no strength.

By UniProt entry, the sequences of proteins in these tests, tags left out.
UniProt Q13283: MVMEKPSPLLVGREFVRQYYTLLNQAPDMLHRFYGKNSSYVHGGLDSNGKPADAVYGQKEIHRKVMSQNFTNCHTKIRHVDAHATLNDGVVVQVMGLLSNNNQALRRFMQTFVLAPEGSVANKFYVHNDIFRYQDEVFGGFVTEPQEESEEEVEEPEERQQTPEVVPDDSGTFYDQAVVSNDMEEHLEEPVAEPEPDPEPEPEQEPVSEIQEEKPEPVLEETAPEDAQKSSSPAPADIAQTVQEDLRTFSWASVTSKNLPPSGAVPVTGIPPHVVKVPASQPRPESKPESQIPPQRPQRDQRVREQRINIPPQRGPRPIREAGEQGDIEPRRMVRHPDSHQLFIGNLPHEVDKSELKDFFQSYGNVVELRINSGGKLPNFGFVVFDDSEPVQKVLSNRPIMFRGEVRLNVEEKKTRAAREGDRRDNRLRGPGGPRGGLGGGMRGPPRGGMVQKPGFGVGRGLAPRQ

Biological target: G3BP1 (human (endogenous in HeLa)) (UniProt Q13283)
Assay: co-IP

binding: binds
B1: hnRNP R (protein, UniProt O43390 1-633)
chain: MANQVNGNAVQLKEEEEPMDTSSVTHTEHYKTLIEAGLPQKVAERLDEIFQTGLVAYVDLDERAIDALREFNEEGALSVLQQFKESDLSHVQNKSAFLCGVMKTYRQREKQGSKVQESTKGPDEAKIKALLERTGYTLDVTTGQRKYGGPPPDSVYSGVQPGIGTEVFVGKIPRDLYEDELVPLFEKAGPIWDLRLMMDPLSGQNRGYAFITFCGKEAAQEAVKLCDSYEIRPGKHLGVCISVANNRLFVGSIPKNKTKENILEEFSKVTEGLVDVILYHQPDDKKKNRGFCFLEYEDHKSAAQARRRLMSGKVKVWGNVVTVEWADPVEEPDPEVMAKVKVLFVRNLATTVTEEILEKSFSEFGKLERVKKLKDYAFVHFEDRGAAVKAMDEMNGKEIEGEEIEIVLAKPPDKKRKERQAARQASRSTAYEDYYYHPPPRMPPPIRGRGRGGGRGGYGYPPDYYGYEDYYDDYYGYDYHDYRGGYEDPYYGYDDGYAVRGRGGGRGGRGAPPPPRGRGAPPPRGRAGYSQRGAPLGPPRGSRGGRGGPAQQQRGRGSRGSRGNRGGNVGGKRKADGYNQPDSKRRQTNNQQNWGSQPIAQQPLQQGGDYSGNYGYNNDNQEFYQDTYGQQWK
